The test addresses FAAH in human bladder epithelial cancer-derived cell line 5678 cells (Homo sapiens, UniProt O00519). The test can be described thus: Screening for FAAH activity-inhibiting substance with human bladder epithelial cancer-derived cell (IC50, Table 64). Format: cell-based. The settings on record: read-out: cell FAAH IC50.

Chains of the proteins cited; added tags and fusions are not shown.
UniProt O00519, whole entry: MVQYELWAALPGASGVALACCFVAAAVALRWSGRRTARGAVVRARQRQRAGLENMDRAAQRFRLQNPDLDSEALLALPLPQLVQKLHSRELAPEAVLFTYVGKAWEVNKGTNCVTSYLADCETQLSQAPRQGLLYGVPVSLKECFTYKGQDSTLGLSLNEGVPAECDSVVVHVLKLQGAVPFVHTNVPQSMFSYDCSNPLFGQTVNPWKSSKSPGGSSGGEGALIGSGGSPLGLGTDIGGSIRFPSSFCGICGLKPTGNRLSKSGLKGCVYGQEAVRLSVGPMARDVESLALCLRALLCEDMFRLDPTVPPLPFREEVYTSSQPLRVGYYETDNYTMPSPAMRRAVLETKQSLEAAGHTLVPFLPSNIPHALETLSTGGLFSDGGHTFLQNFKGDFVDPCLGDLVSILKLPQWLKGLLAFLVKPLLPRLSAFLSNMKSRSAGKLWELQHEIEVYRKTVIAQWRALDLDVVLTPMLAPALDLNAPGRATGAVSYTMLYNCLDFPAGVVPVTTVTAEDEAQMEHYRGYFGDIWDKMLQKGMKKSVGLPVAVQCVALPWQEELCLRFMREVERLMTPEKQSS

The match of structure and compound is tentative.

The IC50 is the concentration at which inhibition is half-maximal.

In the case of `COCc1ccc(OC(=O)N2CCC(Cc3ccccc3)CC2)cn1`, the IC50 is 0.44 nM. As to `O=C(Oc1cccnc1)N1CCN(CCCCc2ccccc2)CC1`, the 50% inhibitory concentration (IC50) was determined as 0.1 nM.

The record behind these values is patent US7919495B2, “Pyridyl non-aromatic nitrogen-containing heterocyclic-1-carboxylate compound” (Astellas Pharma, Inc., priority 2005, dated 2011).
